Positions count from the first letter of the chain named. Results are given in words; binding and its absence hold for the method and conditions named. Binding seen in cells or lysates may run through a third protein. Some binding calls cover weakened binding; strength is not graded here. Sequences can lack the tags named with a protein.
Assays:
Experiment in all cases: co-IP
Flag-BRAT1 V62E (human) = molecular target: T1, Flag-BRAT1 V62E (human) (UniProt Q6PJG6)
T1 sequence: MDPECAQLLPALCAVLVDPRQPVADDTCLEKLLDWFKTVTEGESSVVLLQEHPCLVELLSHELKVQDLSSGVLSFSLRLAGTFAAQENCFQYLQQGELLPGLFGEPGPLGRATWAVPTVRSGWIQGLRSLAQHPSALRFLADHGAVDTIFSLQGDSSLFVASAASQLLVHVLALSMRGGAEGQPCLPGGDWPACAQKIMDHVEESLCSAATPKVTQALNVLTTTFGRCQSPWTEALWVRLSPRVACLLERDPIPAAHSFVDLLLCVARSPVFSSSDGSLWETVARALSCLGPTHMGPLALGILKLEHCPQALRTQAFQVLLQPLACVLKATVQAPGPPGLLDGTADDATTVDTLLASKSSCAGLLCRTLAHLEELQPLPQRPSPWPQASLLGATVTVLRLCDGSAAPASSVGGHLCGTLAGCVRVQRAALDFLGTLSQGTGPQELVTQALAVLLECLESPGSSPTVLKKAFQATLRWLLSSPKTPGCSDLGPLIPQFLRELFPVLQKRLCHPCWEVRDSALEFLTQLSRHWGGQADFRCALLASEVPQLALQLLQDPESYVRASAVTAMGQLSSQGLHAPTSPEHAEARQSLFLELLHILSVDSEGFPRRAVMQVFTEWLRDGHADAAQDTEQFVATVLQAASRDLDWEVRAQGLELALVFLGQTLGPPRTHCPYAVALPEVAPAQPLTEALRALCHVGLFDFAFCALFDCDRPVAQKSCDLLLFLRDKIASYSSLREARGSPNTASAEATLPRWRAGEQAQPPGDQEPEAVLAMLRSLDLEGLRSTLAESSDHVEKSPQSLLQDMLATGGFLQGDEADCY

Protein sequences, listed by entry. Tags and fused reporters are not part of them.
UniProt Q9NV88: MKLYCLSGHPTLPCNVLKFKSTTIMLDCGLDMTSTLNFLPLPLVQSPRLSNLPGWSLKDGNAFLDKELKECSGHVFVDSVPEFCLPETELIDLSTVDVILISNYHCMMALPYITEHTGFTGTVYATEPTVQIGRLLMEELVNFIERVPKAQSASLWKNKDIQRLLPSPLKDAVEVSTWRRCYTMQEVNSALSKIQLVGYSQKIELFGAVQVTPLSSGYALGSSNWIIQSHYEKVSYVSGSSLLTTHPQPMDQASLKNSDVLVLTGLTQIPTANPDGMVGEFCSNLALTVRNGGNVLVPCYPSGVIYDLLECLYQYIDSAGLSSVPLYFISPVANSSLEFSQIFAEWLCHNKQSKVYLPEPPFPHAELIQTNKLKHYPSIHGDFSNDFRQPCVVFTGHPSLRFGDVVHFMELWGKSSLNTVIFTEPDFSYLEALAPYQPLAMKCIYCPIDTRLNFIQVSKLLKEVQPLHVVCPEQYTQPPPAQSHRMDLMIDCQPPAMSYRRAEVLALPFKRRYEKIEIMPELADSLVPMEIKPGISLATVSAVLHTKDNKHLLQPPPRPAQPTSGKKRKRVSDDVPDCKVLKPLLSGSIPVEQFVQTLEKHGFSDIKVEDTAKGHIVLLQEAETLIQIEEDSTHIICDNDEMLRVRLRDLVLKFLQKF
UniProt Q5TA45: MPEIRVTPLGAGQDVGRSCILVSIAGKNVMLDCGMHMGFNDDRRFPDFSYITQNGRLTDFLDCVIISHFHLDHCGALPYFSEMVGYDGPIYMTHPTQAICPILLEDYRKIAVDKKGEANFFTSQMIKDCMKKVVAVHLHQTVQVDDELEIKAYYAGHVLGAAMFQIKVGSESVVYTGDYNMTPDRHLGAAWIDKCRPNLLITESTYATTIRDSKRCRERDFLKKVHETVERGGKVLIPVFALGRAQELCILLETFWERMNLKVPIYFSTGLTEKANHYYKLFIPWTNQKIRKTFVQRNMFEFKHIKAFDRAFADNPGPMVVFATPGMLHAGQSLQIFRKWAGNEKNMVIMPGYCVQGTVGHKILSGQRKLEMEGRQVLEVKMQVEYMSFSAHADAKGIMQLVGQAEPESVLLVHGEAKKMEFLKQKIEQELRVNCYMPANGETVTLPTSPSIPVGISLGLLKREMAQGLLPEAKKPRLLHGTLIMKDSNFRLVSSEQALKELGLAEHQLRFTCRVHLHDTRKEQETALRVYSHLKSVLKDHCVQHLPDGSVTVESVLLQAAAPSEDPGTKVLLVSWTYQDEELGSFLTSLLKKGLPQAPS

[1] = molecular target: T2, Flag-BRAT1 P309_Q310del (human) (UniProt Q6PJG6)
T2 sequence: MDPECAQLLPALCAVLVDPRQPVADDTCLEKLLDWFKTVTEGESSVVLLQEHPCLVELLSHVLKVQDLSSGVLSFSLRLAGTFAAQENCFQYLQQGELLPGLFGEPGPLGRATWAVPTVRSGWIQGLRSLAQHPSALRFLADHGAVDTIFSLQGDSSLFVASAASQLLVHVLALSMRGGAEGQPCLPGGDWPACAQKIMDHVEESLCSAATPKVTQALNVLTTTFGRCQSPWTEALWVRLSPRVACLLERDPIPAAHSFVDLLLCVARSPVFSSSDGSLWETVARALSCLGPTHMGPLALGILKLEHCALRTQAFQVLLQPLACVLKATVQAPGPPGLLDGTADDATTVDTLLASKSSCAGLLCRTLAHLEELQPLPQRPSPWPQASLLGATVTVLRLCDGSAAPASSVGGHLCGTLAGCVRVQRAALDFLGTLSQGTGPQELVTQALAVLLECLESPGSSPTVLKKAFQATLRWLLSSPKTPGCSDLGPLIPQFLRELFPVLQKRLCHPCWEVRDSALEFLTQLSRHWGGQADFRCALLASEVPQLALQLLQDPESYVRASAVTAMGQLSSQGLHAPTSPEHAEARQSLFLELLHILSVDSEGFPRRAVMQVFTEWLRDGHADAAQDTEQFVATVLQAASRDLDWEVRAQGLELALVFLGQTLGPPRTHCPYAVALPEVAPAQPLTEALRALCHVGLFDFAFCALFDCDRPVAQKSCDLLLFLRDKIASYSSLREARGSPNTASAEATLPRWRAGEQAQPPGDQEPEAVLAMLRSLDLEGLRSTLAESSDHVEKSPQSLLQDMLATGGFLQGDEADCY

[2] = molecular target: T3, Flag-BRAT1 wild type (human) (UniProt Q6PJG6)
T3 sequence: T1 sequence with E62V

Measured: binding

INTS9 (endogenous, HEK293T) (from UniProt Q9NV88 1-658)
binds: all assays above

INTS11 (endogenous, HEK293T) (from UniProt Q5TA45 1-600)
binds: all assays above

Reference: article doi:10.1101/2023.08.10.552743
